# Cleaved PARP after 72 h of treatment

From a melanoma drug combination screen (doi:10.1371/journal.pone.0140310); values rounded.

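The test systems are human melanoma cell lines, treated with a pair of drugs for 72 h and then stained and imaged. Values are the share of nuclei positive for cleaved PARP as a percentage of the same share in the DMSO control: 100 is the control level, higher means more apoptosis. Concentrations were fixed for each drug; these are the higher of two levels. The file gives one value for each pair and line, without errors, so small differences may be noise. The marker varies much from line to line, for technical or biological reasons.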 This is part of the screen, not chosen by result. An entry leaves out what has no value listed here.

Drug key:
nilotinib: Cc1cn(-c2cc(NC(=O)c3ccc(C)c(Nc4nccc(-c5cccnc5)n4)c3)cc(C(F)(F)F)c2)cn1 at 1 µM
FH535: Cc1cc([N+](=O)[O-])ccc1NS(=O)(=O)c1cc(Cl)ccc1Cl at 5 µM
sunitinib: CCN(CC)CCNC(=O)c1c(C)[nH]c(/C=C2\C(=O)Nc3ccc(F)cc32)c1C at 2 µM
crizotinib: C[C@@H](Oc1cc(-c2cnn(C3CCNCC3)c2)cnc1N)c1c(Cl)ccc(F)c1Cl at 1 µM
A-769662: N#Cc1c(O)c2c(-c3ccc(-c4ccccc4O)cc3)csc2[nH]c1=O at 10 µM
vismodegib: CS(=O)(=O)c1ccc(C(=O)Nc2ccc(Cl)c(-c3ccccn3)c2)c(Cl)c1 at 5 µM
nutlin-3: COc1ccc(C2=N[C@@H](c3ccc(Cl)cc3)[C@@H](c3ccc(Cl)cc3)N2C(=O)N2CCNC(=O)C2)c(OC(C)C)c1 at 0.5 µM
lestaurtinib: C[C@]12O[C@H](C[C@]1(O)CO)n1c3ccccc3c3c4c(c5c6ccccc6n2c5c31)CNC4=O at 0.02 µM
GW441756: Cn1cc(/C=C2\C(=O)Nc3cccnc32)c2ccccc21 at 2 µM
BI-78D3: O=c1[nH]nc(Sc2ncc([N+](=O)[O-])s2)n1-c1ccc2c(c1)OCCO2 at 1 µM

With BI-78D3 + nilotinib the screen read SK-MEL-5: 74.1; IST-MEL1: 68.5; MZ2-MEL: 76.1; A101D: 118.
With lestaurtinib + BI-78D3 the screen read SK-MEL-5: 489; IST-MEL1: 92.7; A101D: 47.0.
With A-769662 + GW441756 the screen read SK-MEL-5: 120; IST-MEL1: 130; MZ2-MEL: 84.1; A101D: 94.0.
With BI-78D3 + crizotinib the screen read SK-MEL-5: 240; IST-MEL1: 138; MZ2-MEL: 96.7; A101D: 65.5.
With GW441756 + vismodegib the screen read SK-MEL-5: 42.4; IST-MEL1: 46.5; MZ2-MEL: 27.7; A101D: 32.4.
With nutlin-3 + FH535 the screen read SK-MEL-5: 99.9; IST-MEL1: 172; MZ2-MEL: 89.9; A101D: 37.1.
With nutlin-3 + GW441756 the screen read SK-MEL-5: 287; IST-MEL1: 84.8; MZ2-MEL: 101; A101D: 189.
With nutlin-3 + BI-78D3 the screen read SK-MEL-5: 101; IST-MEL1: 32.8; MZ2-MEL: 105; A101D: 98.4.
With vismodegib + A-769662 the screen read SK-MEL-5: 38.2; IST-MEL1: 85.8; MZ2-MEL: 105; A101D: 105.
With nutlin-3 + sunitinib the screen read SK-MEL-5: 159; IST-MEL1: 70.0; MZ2-MEL: 20.6; A101D: 131.
With GW441756 + sunitinib the screen read SK-MEL-5: 199; IST-MEL1: 90.7; MZ2-MEL: 42.0; A101D: 162.
With FH535 + crizotinib the screen read SK-MEL-5: 249; IST-MEL1: 102; MZ2-MEL: 98.9; A101D: 119.
With A-769662 + sunitinib the screen read SK-MEL-5: 47.4; IST-MEL1: 91.2; MZ2-MEL: 207; A101D: 69.9.
With FH535 + lestaurtinib the screen read SK-MEL-5: 266; IST-MEL1: 68.2; MZ2-MEL: 109; A101D: 50.7.
With nilotinib + FH535 the screen read SK-MEL-5: 54.8; IST-MEL1: 281; MZ2-MEL: 69.3; A101D: 195.
With sunitinib + crizotinib the screen read SK-MEL-5: 677; IST-MEL1: 191; MZ2-MEL: 132; A101D: 109.
With vismodegib + nutlin-3 the screen read SK-MEL-5: 24.7; IST-MEL1: 63.2; MZ2-MEL: 176; A101D: 83.4.
With FH535 + BI-78D3 the screen read SK-MEL-5: 170; IST-MEL1: 164; A101D: 90.1.
With vismodegib + lestaurtinib the screen read SK-MEL-5: 186; IST-MEL1: 99.1; MZ2-MEL: 109; A101D: 105.
With sunitinib + lestaurtinib the screen read SK-MEL-5: 750; IST-MEL1: 98.6; MZ2-MEL: 174; A101D: 107.
With vismodegib + FH535 the screen read SK-MEL-5: 339; IST-MEL1: 314; MZ2-MEL: 145; A101D: 162.
With nilotinib + nutlin-3 the screen read SK-MEL-5: 568; IST-MEL1: 107; MZ2-MEL: 169; A101D: 212.
With nilotinib + crizotinib the screen read SK-MEL-5: 236; IST-MEL1: 106; MZ2-MEL: 64.1; A101D: 84.3.
With crizotinib + A-769662 the screen read SK-MEL-5: 61.4; IST-MEL1: 89.0; MZ2-MEL: 102; A101D: 69.7.
With GW441756 + nilotinib the screen read SK-MEL-5: 208; IST-MEL1: 20.0; MZ2-MEL: 120; A101D: 61.6.
With vismodegib + crizotinib the screen read SK-MEL-5: 113; IST-MEL1: 54.7; MZ2-MEL: 157; A101D: 158.
With nilotinib + A-769662 the screen read SK-MEL-5: 184; IST-MEL1: 414; MZ2-MEL: 52.9; A101D: 133.

For reference, 2 entries once more:

| Combination | SK-MEL-5 | IST-MEL1 | MZ2-MEL | A101D |
|---|---|---|---|---|
| GW441756 + nilotinib | 208 | 20.0 | 120 | 61.6 |
| FH535 + crizotinib | 249 | 102 | 98.9 | 119 |